Measurements taken from US20070093410A1, “Selective inhibition of proteasomes of tuberculosis and other bacteria” (President and Fellows of Harvard College, priority 2004, published 2007).
Some of these results come from one statement about several compounds together. At least one structure is not confirmed: it was looked up by name or label, or the drawing left a doubt. Non-standard residues stand in square brackets, D forms with d. Residues, ends and D or L forms follow the SMILES beside them. *: point of attachment. Nle = CCCC[C@H](N)C(=O)O; Cbz = O=C(OCc1ccccc1)*

System: SDS-activated 20S mammalian proteasomes
Assay: Inhibition of individual active sites of SDS-activated 20S mammalian proteasomes, fluorogenic substrates specific for each active site
Assay type: biochemical, rabbit
Details: fluorogenic substrate specific for the site, FIG. 1C
Experimental: FIGS. 1A-1D depict hydrolysis of bKKQ10KK (SEQ ID NO:5) by the trypsin-like active site of the eukaryotic proteasome. A) 80 μM bKKQ10KK (SEQ ID NO:5) was incubated with mammalian (rabbit) 20S proteasomes with or without PA28αβ, 0.02% SDS. B) 35 μM bKKQ10KK (SEQ ID NO:5) was incubated with yeast wild type and ‘open-gate’ (α3ΔN) proteasomes. C) Mammalian 20S proteasomes were treated with inhibitors specific to each active site. D) After inactivation, the proteasomes were further incubated with bKKQ10KK (SEQ ID NO:5).
To identify which active site of the proteasome cleaved after bKKQ, inhibitors that selectively block the individual active sites were used. SDS-activated 20S mammalian proteasomes were treated with the irreversible inhibitors, 4-hydroxy-5-iodo-3-nitrophenylacetyl-Leu-Leu-vinyl sulfone (NLVS); (Bogyo et al., supra, incorporated herein by reference in its entirety for all purposes), which is specific for the chymotrypsin-like site; Acetyl-Tyr-Arg-Leu-Asn-vinyl sulfone (SEQ ID NO:20) (Ac-YRLN-VS), which reacts primarily with the trypsin-like site (Nazif et al. (2001) Proc. Natl. Acad. Sci. USA 98:2967, incorporated herein by reference in its entirety for all purposes); or with the reversible inhibitor of the caspase-like site, Z-Pro-norLeu-Asp-aldehyde (Z-PnLD-CHO) (Kisselev et al. (2003) supra, incorporated herein by reference in its entirety for all purposes). […]

| Molecule | decrease in the individual peptidase activity (chymotrypsin-like site) | decrease in the individual peptidase activity (caspase-like site) |
| --- | --- | --- |
| 4-hydroxy-5-iodo-3-nitrophenylacetyl-Leu-Leu-vinyl sulfone [NLVS] | 85%-95% |  |
| CCCC[C@H](NC(=O)[C@@H]1CCCN1C(=O)OCc1ccccc1)C(=O)N[C@H](C=O)CC(=O)O [Z-PnLD-CHO, Z-Pro-norLeu-Asp-aldehyde] (Cbz-Pro-[Nle]-Asp-aldehyde) |  | 85%-95% |
